Experimental data: US20190389910A1 (ORUM THERAPEUTICS, published 2019)
No constants are given. Whether binding was seen depends on the method and setting. Some entries that bind do so weakly or less than the wild type.

How the values were obtained:
[1] = target: T1, EpCAM (epithelial cell adhesion molecule) expressed on the cell surface of human tumor cells (human) (UniProt P16422); test: flow cytometry, 100 nM antibody, 4 °C
T1 sequence (looked up): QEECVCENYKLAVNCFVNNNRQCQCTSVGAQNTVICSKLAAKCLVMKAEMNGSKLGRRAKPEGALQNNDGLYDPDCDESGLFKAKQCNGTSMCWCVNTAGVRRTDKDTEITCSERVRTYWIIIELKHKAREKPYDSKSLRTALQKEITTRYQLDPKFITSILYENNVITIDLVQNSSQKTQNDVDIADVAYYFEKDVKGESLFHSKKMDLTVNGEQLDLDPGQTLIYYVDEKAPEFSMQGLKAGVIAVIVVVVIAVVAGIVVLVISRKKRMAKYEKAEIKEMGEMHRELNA

[2] = target: T1, EpCAM (epithelial cell adhesion molecule) expressed on the cell surface of human tumor cells (human); test: flow cytometry on HCT116, SW480 and HeLa cells; 100 nM antibody with 300 IU/mL heparin, 1 h at 4 °C, Alexa488 anti-human Fc

- binding [1]: binds
- binding [2]: binds
B1: epCT05 (antibody, V domains shown)
VH: EVQLVESGGGLVQPGGSLRLSCAASGYTFTSYVMHWVRQAPGKGLEWVSAINPYNDGNYYADSVKGRFTISRDNSRKTLYLQMNSLRAEDTAVYYCARGAYKRGYAMDYWGQGTTVTVSS
VL: DIQMTQSPSSLSASVGDRVTITCKSSQSLLNSRDGKNYLAWYQQKPGKAPKLLIYDASNLETGVPSRFSGSGSGTDFTFTISSLQPEDIATYFCQQYWYWMYTFGGGTKVEIKR
modifications: disulfide bond Cys5-Cys10 closes the cyclic peptide
